Source: patent publication US11298402B2, “Lysosomal degradation of lipids and proteins and method of use thereof” (University of Ottawa, priority 2015, dated 2022)
“Also recorded” adds a separate entry of the source. At least one structure is not confirmed: it was looked up by name or label, or the drawing left a doubt.

Tested on: McA-RH7777 cells stably expressing human apoB-100 and human apoC-III (A18-C3)
Format: cell-based
Conditions: lipid-laden hepatic cells, fatty acid 0.4 mM, within several hours; EPA compared with OA
Description: In certain non-limiting examples described herein, McA-RH7777 cells stably expressing human apoB-100 and human apoC-III (designated A18-C3) were used for the studies. […] In addition, these studies, particularly those concerning EPA- or DHA-triggered lysosomal motility and CLD degradation, were also performed using primary rat hepatocytes. Transfection of plasmids encoding proteins of interest, or transfection of siRNA specific for silencing target gene expression, was achieved using the FuGENE HP Extreme reagent (Roche). […] Quantification of cell lipid contents was achieved either by direct mass measurement (HPTLC) and counting the number of lipid droplets using Image J Lipid Droplet Counter Plug-In, or indirectly by Western blot analysis of cellular content of ADRP. Secretion of apoB and TG-rich lipoprotein was determined by Western blot analysis and metabolic labeling. Mitochondrial β-oxidation was measured using MitoSOX Red (Life Technologies) in situ. Autophagic flux was determined by using Cyto-ID assay (Enzo Life Science) and by monitoring GFP-LC3 clustering in situ. Interaction of Arl8b and subunits of the HOPS complex was determined in situ by the proximity ligation assay (Olink Biosience). Cytoplasmic pH was measured using the cytosolic pHrodo indicator reagent (Invitrogen). […]

With `CC/C=C\C/C=C\C/C=C\C/C=C\C/C=C\CCCC(=O)O` [EPA, eicosapentaenoic acid] the “cellular lipid content / CLD-associated TG” value was “markedly decreased cellular lipid content; also recorded: CLD-associated TG was hydrolyzed”.
